Measurements from article PMC7561375.
These are yes or no findings as the source states them, for the method shown. In cells and extracts the contact can be indirect. Some binding calls cover weakened binding; strength is not graded here.

The chains behind the UniProt entries cited, without tags or fusion partners.
UniProt P18009: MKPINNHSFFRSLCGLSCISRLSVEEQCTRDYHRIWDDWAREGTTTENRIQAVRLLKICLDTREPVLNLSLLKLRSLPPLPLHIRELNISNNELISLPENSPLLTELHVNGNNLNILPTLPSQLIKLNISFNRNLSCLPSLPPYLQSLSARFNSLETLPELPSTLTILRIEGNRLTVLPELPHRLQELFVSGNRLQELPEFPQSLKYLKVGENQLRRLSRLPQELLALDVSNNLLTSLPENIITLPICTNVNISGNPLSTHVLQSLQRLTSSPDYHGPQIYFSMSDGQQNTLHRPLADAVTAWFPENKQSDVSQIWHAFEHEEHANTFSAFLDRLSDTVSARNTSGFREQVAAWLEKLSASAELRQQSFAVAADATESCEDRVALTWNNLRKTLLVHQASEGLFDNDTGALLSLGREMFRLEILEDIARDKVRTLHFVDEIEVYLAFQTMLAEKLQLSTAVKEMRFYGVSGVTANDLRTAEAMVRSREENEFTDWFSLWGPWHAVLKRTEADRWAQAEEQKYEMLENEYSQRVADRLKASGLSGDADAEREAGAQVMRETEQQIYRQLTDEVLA
UniProt Q96P20: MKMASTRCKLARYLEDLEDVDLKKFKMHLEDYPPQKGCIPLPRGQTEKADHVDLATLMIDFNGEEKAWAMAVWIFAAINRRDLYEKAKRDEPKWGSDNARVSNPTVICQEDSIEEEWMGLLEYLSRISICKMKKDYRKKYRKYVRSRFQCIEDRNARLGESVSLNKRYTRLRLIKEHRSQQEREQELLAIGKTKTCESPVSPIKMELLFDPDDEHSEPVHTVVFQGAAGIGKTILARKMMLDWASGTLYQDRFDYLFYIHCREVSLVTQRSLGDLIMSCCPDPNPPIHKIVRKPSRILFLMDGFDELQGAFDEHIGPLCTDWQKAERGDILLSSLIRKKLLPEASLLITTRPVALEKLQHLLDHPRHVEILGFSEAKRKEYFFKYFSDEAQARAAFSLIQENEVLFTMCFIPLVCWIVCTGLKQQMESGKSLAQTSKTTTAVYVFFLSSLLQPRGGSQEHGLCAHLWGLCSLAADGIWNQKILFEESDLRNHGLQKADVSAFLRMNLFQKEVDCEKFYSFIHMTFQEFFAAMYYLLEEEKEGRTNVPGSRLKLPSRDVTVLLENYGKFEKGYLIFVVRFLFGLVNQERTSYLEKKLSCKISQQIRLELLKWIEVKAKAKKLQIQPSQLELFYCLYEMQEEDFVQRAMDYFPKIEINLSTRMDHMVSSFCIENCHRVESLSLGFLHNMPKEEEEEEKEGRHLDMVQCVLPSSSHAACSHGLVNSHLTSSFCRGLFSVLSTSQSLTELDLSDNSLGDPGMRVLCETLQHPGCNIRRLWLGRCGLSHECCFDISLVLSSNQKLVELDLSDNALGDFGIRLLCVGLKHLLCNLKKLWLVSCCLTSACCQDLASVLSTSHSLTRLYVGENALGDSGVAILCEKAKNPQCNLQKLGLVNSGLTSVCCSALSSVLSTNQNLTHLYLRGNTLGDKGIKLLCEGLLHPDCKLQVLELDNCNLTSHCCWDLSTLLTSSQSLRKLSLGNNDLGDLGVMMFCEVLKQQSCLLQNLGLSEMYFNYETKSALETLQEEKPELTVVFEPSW
UniProt Q8VSC3: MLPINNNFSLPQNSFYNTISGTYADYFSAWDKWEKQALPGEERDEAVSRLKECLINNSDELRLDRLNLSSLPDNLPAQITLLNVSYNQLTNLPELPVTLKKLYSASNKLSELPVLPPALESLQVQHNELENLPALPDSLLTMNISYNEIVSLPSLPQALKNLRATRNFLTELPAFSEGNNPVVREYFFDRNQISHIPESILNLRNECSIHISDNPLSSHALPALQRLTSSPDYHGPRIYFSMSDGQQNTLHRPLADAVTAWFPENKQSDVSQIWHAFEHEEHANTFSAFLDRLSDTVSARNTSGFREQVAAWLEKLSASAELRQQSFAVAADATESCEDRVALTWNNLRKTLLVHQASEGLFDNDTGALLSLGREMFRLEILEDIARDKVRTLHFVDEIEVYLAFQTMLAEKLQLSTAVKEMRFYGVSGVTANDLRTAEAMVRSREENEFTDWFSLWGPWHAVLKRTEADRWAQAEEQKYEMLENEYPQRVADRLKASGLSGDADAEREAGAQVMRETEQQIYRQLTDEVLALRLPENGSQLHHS
UniProt Q8R4B8: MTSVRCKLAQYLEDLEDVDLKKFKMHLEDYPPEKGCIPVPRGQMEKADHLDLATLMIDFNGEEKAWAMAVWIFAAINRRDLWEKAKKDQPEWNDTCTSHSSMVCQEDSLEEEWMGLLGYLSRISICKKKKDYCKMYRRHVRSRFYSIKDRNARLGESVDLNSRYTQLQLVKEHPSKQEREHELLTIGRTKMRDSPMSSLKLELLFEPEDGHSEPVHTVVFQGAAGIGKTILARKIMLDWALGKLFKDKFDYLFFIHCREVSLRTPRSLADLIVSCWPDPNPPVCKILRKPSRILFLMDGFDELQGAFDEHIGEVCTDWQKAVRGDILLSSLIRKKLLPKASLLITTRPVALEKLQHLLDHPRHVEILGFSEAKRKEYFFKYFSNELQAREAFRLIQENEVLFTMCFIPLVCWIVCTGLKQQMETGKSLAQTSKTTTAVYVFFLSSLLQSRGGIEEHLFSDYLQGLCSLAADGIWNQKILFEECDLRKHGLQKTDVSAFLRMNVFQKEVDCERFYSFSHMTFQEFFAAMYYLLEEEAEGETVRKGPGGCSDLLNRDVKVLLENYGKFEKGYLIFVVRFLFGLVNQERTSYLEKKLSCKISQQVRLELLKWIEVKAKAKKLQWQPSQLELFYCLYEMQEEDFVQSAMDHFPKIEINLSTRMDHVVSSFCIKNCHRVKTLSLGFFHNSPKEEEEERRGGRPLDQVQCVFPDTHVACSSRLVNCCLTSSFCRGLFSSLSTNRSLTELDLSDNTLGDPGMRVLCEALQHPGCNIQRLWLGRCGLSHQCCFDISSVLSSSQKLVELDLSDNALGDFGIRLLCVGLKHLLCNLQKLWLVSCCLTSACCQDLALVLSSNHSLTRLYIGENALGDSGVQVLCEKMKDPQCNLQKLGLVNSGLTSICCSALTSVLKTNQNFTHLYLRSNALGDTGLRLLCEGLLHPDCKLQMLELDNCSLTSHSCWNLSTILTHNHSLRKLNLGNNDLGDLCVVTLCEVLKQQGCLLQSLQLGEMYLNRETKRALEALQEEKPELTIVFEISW

What was measured:
[1] = target: GST-tagged IpaH4.5 (Shigella flexneri 2a 301) (UniProt P18009); assay: pull-down; purified GST-IpaH4.5 on glutathione beads; lysate of HEK293 cells expressing Flag-NLRP3; three washes; blot with anti-Flag; only the target purified
Flag-tagged NLRP3 = Flag-tagged NLRP3 (UniProt Q96P20); assay: co-IP; HEK293 cells cotransfected with Flag-NLRP3 and a Myc-tagged IpaH protein; anti-Flag M2 affinity gel, 2 h at 4°C; washed with 50 mM Tris-HCl pH 7.5, 1 mM EDTA, 0.3 mM dithiothreitol, 150 mM NaCl, 0.1% NP40; blot with anti-Myc
[2] = target: Flag-tagged IpaH4.5 (Shigella flexneri 2a 301) (UniProt P18009); assay: co-IP; RAW264.7 cells transfected with Flag-IpaH4.5; anti-Flag M2 affinity gel, 2 h at 4°C; blot with anti-NLRP3 for the endogenous protein

| Substance | binding (Flag-tagged NLRP3) | also measured |
| --- | --- | --- |
| Flag-tagged NLRP3 (from UniProt Q96P20 1-1036) | – | binding [1]: binds |
| Myc-tagged IpaH4.5 (from UniProt P18009 1-574) | binds | – |
| Myc-tagged IpaH9.8 (from UniProt Q8VSC3 1-545) | no binding | – |
| endogenous NLRP3 (from UniProt Q8R4B8 1-1033) | – | binding [2]: binds |
